At least one compound was matched to its structure with a doubt left.
Columns and labels:
LC-1 cells = assay: Subcutaneous LC-1 lung cancer cell tumours in C57BL/6J mice; format: in vivo, mouse; settings: 1×10^6 LC-1 cells s.c.; CAL-101 i.p., scheme of FIG. 5
[1] = test system: phosphoinositide 3-kinase delta (PI3Kδ); settings: defined CAL-101 doses, in vivo and in vitro; cited from earlier work

For CC[C@H](Nc1ncnc2[nH]cnc12)c1nc2cccc(F)c2c(=O)n1-c1ccccc1 [CAL-101], the “tumour growth / tumour size (FIG. 6)” value (LC-1 cells) is listed as “no therapeutic benefit” and the “effect on function of Tregs via PI3Kδ” value [1] is listed as “specifically inhibit the function of mouse and human Tregs”.

Source: patent publication US20210128727A1, “A pharmaceutical combination for use in the treatment of cancer” (Universitätsmedizin der Johannes Gutenberg-Universität Mainz, priority 2018, published 2021)
